Results taken from patent publication US20170189504A1, “NOVEL PEPTIDES AND COMBINATION OF PEPTIDES FOR USE IN IMMUNOTHERAPY AGAINST VARIOUS CANCERS” (immatics biotechnologies GmbH, priority 2015, published 2017).
For some of these results: For expression read-outs the peptide stands for its source gene, whose mRNA was measured; the gene is not named for every peptide.

Tests used:
HLA-A*02 = test: Identification and relative LC-MS quantitation of HLA-A*02-presented tumor-associated peptides on tissue samples (presentation profiles, Tables 13A, 13B, 15, FIG. 1); set-up: species or system human; key to Presentation score NHL / Presentation score CLL / Presentation score BRCA / Presentation score AML / Presentation score GB / Presentation score NSCLC / Presentation score GBC_CCC / Presentation score UEC / Presentation score MEL / Presentation score OSCAR / Presentation score GC / Presentation score UBC / Presentation score OC / Presentation score RCC / Presentation score CRC / Presentation score PCA / Presentation score HCC / Presentation score PC / Presentation score SCLC: specifically presented on tumors (++++); very highly over-presented on tumors compared to a panel of normal tissues (+++); highly over-presented on tumors compared to a panel of normal tissues (++); over-presented on tumors compared to a panel of normal tissues (+)
tumor samples = test: Absolute quantitation of tumor associated peptides presented on the cell surface (copies per cell, nanoLC-MS/MS) (Table 22); set-up: species or system human; conditions: absolute peptide quantitation in tumor samples
HLA-A*24 = test: Identification and relative LC-MS quantitation of HLA-A*24-presented tumor-associated peptides on tissue samples (presentation profiles, Tables 14A, 14B, 16, FIG. 1); set-up: species or system human; key to Presentation score GC / Presentation score NSCLC / Presentation score PCA / Presentation score GB / Presentation score HCC / Presentation score RCC: specifically presented on tumors (++++); very highly over-presented on tumors compared to a panel of normal tissues (+++); highly over-presented on tumors compared to a panel of normal tissues (++); over-presented on tumors compared to a panel of normal tissues (+)
source genes (mRNA) [1] = test: Gene and exon expression of source genes, TCGA tumor samples compared with normal tissue samples (Lonsdale, 2013) (Table 17); set-up: species or system human
source genes (mRNA) [2] = test: Expression profiling of source genes by in-house RNASeq of tumor and normal tissues (Table 18, FIG. 2); set-up: species or system human; key: very highly over-expressed in tumors compared to a panel of normal tissues (+++); highly over-expressed in tumors compared to a panel of normal tissues (++); over-expressed in tumors compared to a panel of normal tissues (+); conditions: source gene of peptide

24 (TLDEKVAEL; listed as Homo sapiens) [compound 24]
Presentation score OSCAR (HLA-A*02; HLA-A*02 peptides, esophageal cancer, including cancer of the gastric-esophageal junction (N = 17) vs panel of normal tissues (N = 262)): ++++ | Presentation score HCC (HLA-A*02; HLA-A*02 peptides, hepatocellular carcinoma (N = 16) vs panel of normal tissues (N = 262)): ++++ | Presentation score MEL (HLA-A*02; HLA-A*02 peptides, melanoma (N = 7) vs panel of normal tissues (N = 262)): ++++ | Presentation score NSCLC (HLA-A*02; HLA-A*02 peptides, non-small cell lung cancer (N = 90) vs panel of normal tissues (N = 262)): ++++ | Copies per cell (median) (tumor samples): + (<100 = +)

251 (ALSVLRLAL; listed as Homo sapiens) [compound 251]
Presentation score AML (HLA-A*02; HLA-A*02 peptides, acute myeloid leukemia (N = 18) vs panel of normal tissues (N = 262)): ++++ | Peptide Presentation on cancer entities (HLA-A*02; Table 13A, HLA-A*02-binding tumor-associated peptides, cancer entities on which the peptide was found presented): AML | Copies per cell (median) (tumor samples): ++ (>=100 = ++)

166: peptide found in NUP160 (gene looked up) (YYVESGKLF; listed as Homo sapiens) [compound 166]
Presentation score GB (HLA-A*24; HLA-A*24 peptides, glioblastoma (N = 18) vs panel of normal tissues (N = 70)): ++++ | Presentation score HCC (HLA-A*24; HLA-A*24 peptides, hepatocellular carcinoma (N = 15) vs panel of normal tissues (N = 70)): ++++ | Presentation score NSCLC (HLA-A*24; HLA-A*24 peptides, non-small cell lung cancer (N = 91) vs panel of normal tissues (N = 70)): ++++ | Peptide Presentation on cancer entities (HLA-A*24; Table 14A, HLA-A*24-binding tumor-associated peptides, cancer entities on which the peptide was found presented): GB, NSCLC, HCC | Over-expression category of source gene (target coverage), BLCA (source genes (mRNA) [1]; BLCA = Bladder urothelial carcinoma (N = 408), same cutoff): B (>= 20% of tumors above the cutoff, but <50%) | Over-expression category of source gene (target coverage), BRCA (source genes (mRNA) [1]; BRCA = Breast cancer (N = 1104), tumors more than 2-fold above highest 75% percentile of normal tissues): B (>= 20% of tumors above the cutoff, but <50%) | Over-expression category of source gene (target coverage), CHOL (source genes (mRNA) [1]; CHOL = Cholangiocarcinoma (N = 36), same cutoff): B (>= 20% of tumors above the cutoff, but <50%) | Over-expression category of source gene (target coverage), COAD (source genes (mRNA) [1]; COAD = Colon and rectal adenocarcinoma (N = 462), same cutoff): A (>=50% of tumors above the cutoff) | Over-expression category of source gene (target coverage), DLBC (source genes (mRNA) [1]; DLBC = Lymphoid neoplasm diffuse large B-cell lymphoma (N = 48), same cutoff): B (>= 20% of tumors above the cutoff, but <50%) | Over-expression category of source gene (target coverage), ESCA (source genes (mRNA) [1]; ESCA = Esophageal cancer (N = 185), same cutoff): A (>=50% of tumors above the cutoff) | Over-expression category of source gene (target coverage), GBM (source genes (mRNA) [1]; GBM = Glioblastoma multiforme (N = 169), same cutoff): B (>= 20% of tumors above the cutoff, but <50%) | Over-expression category of source gene (target coverage), KICH (source genes (mRNA) [1]; KICH = Kidney chromophobe (N = 66), same cutoff): B (>= 20% of tumors above the cutoff, but <50%) | Over-expression category of source gene (target coverage), KIRC (source genes (mRNA) [1]; KIRC = Clear cell kidney carcinoma (N = 534), same cutoff): B (>= 20% of tumors above the cutoff, but <50%) | Over-expression category of source gene (target coverage), KIRP (source genes (mRNA) [1]; KIRP = Papillary kidney carcinoma (N = 291), same cutoff): B (>= 20% of tumors above the cutoff, but <50%) | Over-expression category of source gene (target coverage), LAML (source genes (mRNA) [1]; LAML = Acute Myeloid Leukemia (N = 173), same cutoff): A (>=50% of tumors above the cutoff) | Over-expression category of source gene (target coverage), LGG (source genes (mRNA) [1]; LGG = Lower grade glioma (N = 534), same cutoff): B (>= 20% of tumors above the cutoff, but <50%) | Over-expression category of source gene (target coverage), LIHC (source genes (mRNA) [1]; LIHC = Liver hepatocellular carcinoma (N = 374), same cutoff): C (>=5% of tumors above the cutoff, but <20%) | Over-expression category of source gene (target coverage), LUAD (source genes (mRNA) [1]; LUAD = Lung adenocarcinoma (N = 517), same cutoff): B (>= 20% of tumors above the cutoff, but <50%) | Over-expression category of source gene (target coverage), LUSC (source genes (mRNA) [1]; LUSC = Lung squamous cell carcinoma (N = 503), same cutoff): A (>=50% of tumors above the cutoff) | Over-expression category of source gene (target coverage), OV (source genes (mRNA) [1]; OV = Ovarian serous cystadenocarcinoma (N = 309), same cutoff): B (>= 20% of tumors above the cutoff, but <50%) | Over-expression category of source gene (target coverage), PAAD (source genes (mRNA) [1]; PAAD = Pancreatic ductal adenocarcinoma (N = 179), same cutoff): B (>= 20% of tumors above the cutoff, but <50%) | Over-expression category of source gene (target coverage), PRAD (source genes (mRNA) [1]; PRAD = Prostate adenocarcinoma (N = 498), same cutoff): B (>= 20% of tumors above the cutoff, but <50%) | Over-expression category of source gene (target coverage), READ (source genes (mRNA) [1]; READ = Colon and rectal adenocarcinoma (N = 167), same cutoff): A (>=50% of tumors above the cutoff) | Over-expression category of source gene (target coverage), SKCM (source genes (mRNA) [1]; SKCM = Skin cutaneous melanoma (N = 473), same cutoff): A (>=50% of tumors above the cutoff) | Over-expression category of source gene (target coverage), STAD (source genes (mRNA) [1]; STAD = Stomach adenocarcinoma (N = 415), same cutoff): A (>=50% of tumors above the cutoff) | Over-expression category of source gene (target coverage), UCEC (source genes (mRNA) [1]; UCEC = Uterine corpus endometrial carcinoma (N = 546), same cutoff): C (>=5% of tumors above the cutoff, but <20%) | Expression score OSCAR (source genes (mRNA) [2]; esophageal cancer incl. gastric-esophageal junction (N = 11) vs panel of normal tissues): + | Expression score GB (source genes (mRNA) [2]; glioblastoma (N = 24) vs panel of normal tissues): + | Expression score NHL (source genes (mRNA) [2]; non-Hodgkin lymphoma (N = 10) vs panel of normal tissues): + | Expression score NSCLC (source genes (mRNA) [2]; non-small cell lung cancer (N = 11) vs panel of normal tissues): + | Expression score OC (source genes (mRNA) [2]; ovarian cancer (N = 12) vs panel of normal tissues): + | Expression score SCLC (source genes (mRNA) [2]; small cell lung cancer (N = 10) vs panel of normal tissues): +
